Measurements taken from US20260209387A1, “SINGLE-DOMAIN ANTIBODY FOR INHIBITION OF NEUTROPHIL ELASTASE ACTIVITY” (UNIVERSITE DE LIEGE, priority 2023, published 2026).
No constants are given. Whether binding was seen depends on the method and setting.

How the values were obtained:
[1] = biological target: mouse pancreatic elastase (mouse); assay: BLI, biotinylated NbE201 on streptavidin sensor, protease in solution
[2] = biological target: mouse pancreatic elastase (mouse); assay: BLI, biotinylated NbE201 on streptavidin sensors, protease in solution

B1: biotinylated NbE201 (VHH)
VHH: QVQLQESGGGLVQAGGSLRLSCVVPGRTISLYRMGWFRQAPGKEREFVAGINWSGDMTDYVDSVKGRFTISRDNAKNTVYLEMNSLKPEDTAIYYCTADPKLLPLADSSYGYWGQGTQVTVSS
modifications: C-terminal Cys biotinylated with EZ-Link Maleimide-PEG2-Biotin
notes: Form immobilised on streptavidin sensors in all BLI experiments; It was produced in the pHEN25 vector and biotinylated site-specifically on its C-terminal Cys; also called NbE201_Cter Biot; biotinylated ISVD NbE201
- binding [1]: no binding (tested: 50 nM)
- binding [2]: no binding (tested: 50 nM)
